Two molecules from publication PMC8715634 can be followed below.

These are yes or no findings as the source states them, for the method shown. In cells and extracts the contact can be indirect. Here binding means that the protein was enriched with, or labelled near, the bait; the list need not be complete. Where a sequence is shown, tags or fusion partners need not be part of it.

This assay addresses T1, FLAG-hANO5-BioID2 (human) (UniProt Q75V66).
T1 sequence: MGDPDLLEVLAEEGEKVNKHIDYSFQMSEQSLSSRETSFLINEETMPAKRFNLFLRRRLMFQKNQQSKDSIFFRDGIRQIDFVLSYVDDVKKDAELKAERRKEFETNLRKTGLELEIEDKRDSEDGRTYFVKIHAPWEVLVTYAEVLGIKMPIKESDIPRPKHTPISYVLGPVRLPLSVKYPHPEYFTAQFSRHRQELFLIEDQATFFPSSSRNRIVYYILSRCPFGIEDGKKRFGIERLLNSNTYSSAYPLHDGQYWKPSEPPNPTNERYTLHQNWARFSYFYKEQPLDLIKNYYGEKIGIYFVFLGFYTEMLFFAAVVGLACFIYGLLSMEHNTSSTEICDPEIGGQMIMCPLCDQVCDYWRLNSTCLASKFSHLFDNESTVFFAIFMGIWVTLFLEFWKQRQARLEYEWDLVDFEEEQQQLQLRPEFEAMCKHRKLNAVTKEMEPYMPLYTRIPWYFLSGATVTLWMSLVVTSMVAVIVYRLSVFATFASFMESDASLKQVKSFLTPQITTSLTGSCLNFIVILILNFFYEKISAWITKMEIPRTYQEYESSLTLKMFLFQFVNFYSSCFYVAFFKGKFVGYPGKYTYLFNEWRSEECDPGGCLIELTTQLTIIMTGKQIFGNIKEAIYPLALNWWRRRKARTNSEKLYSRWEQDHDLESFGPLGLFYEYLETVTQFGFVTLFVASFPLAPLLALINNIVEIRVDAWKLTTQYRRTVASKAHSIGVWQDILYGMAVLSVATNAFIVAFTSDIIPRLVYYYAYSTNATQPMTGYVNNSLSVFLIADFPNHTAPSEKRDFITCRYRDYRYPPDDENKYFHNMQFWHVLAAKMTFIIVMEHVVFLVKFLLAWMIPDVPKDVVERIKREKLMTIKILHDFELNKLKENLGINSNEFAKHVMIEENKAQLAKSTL
The assay can be described thus: proximity labelling; BioID2; C2C12 myotubes stably expressing the BioID2 fusion, 50 uM biotin for 16 h; biotinylated proteins isolated on streptavidin magnetic beads and identified by mass spectrometry (minimum 2 unique peptides, FDR below 1.0%).

B1: POPDC3, endogenous in C2C12 (protein, UniProt Q9ES81 1-291)
chain: MEKNSSLWKSLVTEHPLCTTWKQEAEGAIYHLASILFVVGFMGGSGFFGLLYVFSLLGLGFLSSAVWAWVDICAADIFSWNFVLFVICFMQFVHIAYQVHSITFARDFHVLYSSLFKPLGIPLPVFRTIALSSEVVSLEKEHCYAMQGKTSIDRLSVLISGRIRVTVDGEFLHYISPFQFLDSPEWDSLRPTEEGIFQVTLTADTDCRYVSWRRKKLYLLFAQHRYISRLFSVLIGSDIADKLYALNDRVYIGKKHHYDIRLPNYYHMSTPDLSRSPLTEQFRNSRQHCNK
On to B1, for which the binding entry was “binds”.

B2: BVES, endogenous in C2C12 (protein, UniProt Q9ES83 1-358)
chain: MNSTESIPLAQSTVAGFTSELESLTPVPSNETTCENWREIHHLVFHVANVCFAVGLLIPTTLHLHMILLRVMLSLGCTLYVVWATLYRCALDVMIWNSVFLGINILHLSYLLYKKRPVKIEKELGGVYHRLFEPLRVPPDLFRRLTGQFCMIQTLKRGQVYATEDKTSVDDRLSILLKGRMKVSYRGHFLHNIYPCAFIDSPEFRSTQMHKGEKFQVTIVADDNCRFLCWSRERLTYFLESEPFLYEIFRYLIGKDITNKLYSLNDPTLNDKKVKKLEPQMSLCTQISMLEMRNSITSSSDGEDGLHHFLRGSSSTASLPMSSPQQRASAKMKPIEEGVEDDDEVFVSPDALKVHQLP
As to B2, the binding entry was “binds”.
